Data as given in article PMC11830286, “Protein identification using Cryo-EM and artificial intelligence guides improved sample purification” (Journal of Structural Biology: X, 2025).
No constants are given. Whether binding was seen depends on the method and setting. Some results given as binding are weak or reduced against the parent protein; the word gives no strength.

Experiments:
[1] = biological target: dihydrolipoamide succinyltransferase (DLST) (E. coli BL21 (DE3)) (UniProt P0AFG6); assay: negative-stain EM; SEC-purified peak at 0.10 mg/mL, 2 % uranyl formate; 2D classes and 3D refinement with octahedral symmetry; both purified
[2] = biological target: dihydrolipoamide succinyltransferase (DLST) (E. coli BL21 (DE3)) (UniProt P0AFG6); assay: cryo-EM structure; single particle analysis of the SEC peak of the nanoparticle preparation purified without glycine or arginine; octahedral symmetry enforced, 2.51 Å; about 0.3 mg/mL, buffer with DDM; both purified

- binding [1]: binds
- binding [2]: binds
B1: dihydrolipoamide succinyltransferase (DLST) (enzyme, E. coli BL21 (DE3), UniProt P0AFG6 1-405, looked up)
chain: MSSVDILVPDLPESVADATVATWHKKPGDAVVRDEVLVEIETDKVVLEVPASADGILDAVLEDEGTTVTSRQILGRLREGNSAGKETSAKSEEKASTPAQRQQASLEEQNNDALSPAIRRLLAEHNLDASAIKGTGVGGRLTREDVEKHLAKAPAKESAPAAAAPAAQPALAARSEKRVPMTRLRKRVAERLLEAKNSTAMLTTFNEVNMKPIMDLRKQYGEAFEKRHGIRLGFMSFYVKAVVEALKRYPEVNASIDGDDVVYHNYFDVSMAVSTPRGLVTPVLRDVDTLGMADIEKKIKELAVKGRDGKLTVEDLTGGNFTITNGGVFGSLMSTPIINPPQSAILGMHAIKDRPMAVNGQVEILPMMYLALSYDHRLIDGRESVGFLVTIKELLEDPTRLLLDV
notes: dihydrolipoamide succinyltransferase (DLST) of E. coli BL21(DE3), UniProt A0A140NDX4; host protein, no construct; the first 170 residues were unresolved in the cryo-EM map and only the catalytic domain was modelled; also called dihydrolipoyllysine-residue succinyltransferase; contaminant nanoparticle; source: endogenous, E. coli BL21(DE3) expression host; co-purified as a contaminant with …
